# Out of some 300,000 compounds screened, about 3,700 (1.2%) were called active. This list was built around the results that the source calls inconclusive (neither active nor inactive); the mix of calls is not that of the screen. Calls come from the whole dose curve; tested in HEK293 cells. Potencies beside an inconclusive call are fits to weak or partial responses and may not hold up.
# Assay: qHTS for Inhibitors of binding or entry into cells for Lassa Virus; note: nearly all actives have a fitted effect of over 50% in size
# Details: Lassa virus pseudotype entry inhibition, cell reporter; activity change, negative = inhibition: at 37.9 µM (top of the series) unless noted
# % is set by controls: 0 for no effect and ±100 for the full control effect; potency is the fitted concentration of half-maximal effect.
Structure (SMILES),"activity change, negative = inhibition",Potency
Nc1nc(-c2ccc([N+](=O)[O-])cc2)cs1,inactive: 7.14%,–
Cc1cc(OCC(=O)NC2CCCCC2)ccc1Cl,–,"inconclusive: 1.26 µM [inhibitor, single point]"
COc1ccc(NC(=O)CSc2nc(-c3cc(OC)c(OC)c(OC)c3)[nH]c2-c2ccc(F)cc2)cc1,inactive: -23.8% [at 46.1 µM],–
COc1cc(/C=N\NC(=O)Cn2nnc3ccccc32)cc(OC)c1OC,–,"inconclusive: 1.26 µM [activator, single point]"
O=C(CCN1C(=O)/C(=C/c2ccccc2)SC1=S)NNC(=O)c1cccnc1,–,"inconclusive: 1.41 µM [inhibitor, partial curve, poor fit]"
O=C(c1nnsc1S(=O)c1ccc(Cl)cc1)N1CCOCC1 (configuration not stated),–,"inconclusive: 35.5 µM [inhibitor, single point]"
COc1cc(NC(=O)CN2CCN(S(=O)(=O)c3ccc(Br)cc3)CC2)cc(OC)c1,–,"inconclusive: 12.6 µM [activator, partial curve, poor fit]"
C=CCn1c(SCC(=O)N2CCc3ccccc3C2)nc2sc(CC)cc2c1=O,–,"inconclusive: 35.5 µM [inhibitor, single point]"
O=C(c1ccc(Sc2ccc(F)cc2)c([N+](=O)[O-])c1)N1CCOCC1,–,"inconclusive: 2 µM [inhibitor, partial curve, poor fit]"
O=C(CSc1nc(-c2ccccc2)cn1-c1ccccc1F)Nc1ccc(F)cc1,–,"inconclusive: 12.6 µM [inhibitor, partial curve, poor fit]"
CCOc1ccc(NC(=O)CCC(=O)N/N=C/c2ccc([N+](=O)[O-])s2)cc1,–,"inconclusive: 0.316 µM [inhibitor, full curve, poor fit]"
COc1ccc(N(C(=O)c2snc(C(N)=O)c2N)C(C(=O)NC2CCCC2)c2ccco2)cc1OC (configuration not stated),–,"inconclusive: 0.562 µM [inhibitor, full curve, poor fit]"
COc1cccc(CN(C)CC2CCCN(CCc3ccc(Cl)cc3)C2)c1OC (configuration not stated),–,"inconclusive: 20 µM [inhibitor, partial curve, poor fit]"
O=C1c2ccccc2C(=O)c2c1cccc2N(CCO)CCO,inactive: 3.01% [at 46.1 µM],–
COC(=O)c1ccccc1NC(=O)Nc1ccc2c(c1)OCO2,inactive: 20.7%,–
COc1ccc(CCNC(=O)COc2coc(CN3c4ccccc4CC3C)cc2=O)cc1OC (configuration not stated),–,"inconclusive: 35.5 µM [inhibitor, single point]"
C=CCC(CC(O)COCCC)C(=O)NNC(=S)Nc1ccccc1 (configuration not stated),inactive: 29.2% [at 46.1 µM],–
CC1C/C(=N\NC(N)=S)c2cc(Cl)ccc2S1 (configuration not stated),–,"inconclusive: 10 µM [inhibitor, partial curve, poor fit]"
COc1ccc(N2CCN(c3ncnc4c3cnn4-c3ccc(F)cc3)CC2)cc1,–,"inconclusive: 1.78 µM [activator, partial curve, poor fit]"
CCN(c1ccccc1)S(=O)(=O)c1c(C)nc2scc(C)n2c1=O,inactive: -1.98% [at 46.1 µM],–
CCOC(=O)c1c(C)oc2nc(C)nc(NCCc3ccc(OCC)c(OCC)c3)c12,–,"inconclusive: 7.08 µM [activator, partial curve]"

# Three of these compounds, reformatted:
Structure (SMILES) | activity change, negative = inhibition | Potency
Nc1nc(-c2ccc([N+](=O)[O-])cc2)cs1 | inactive: 7.14% | –
O=C(CSc1nc(-c2ccccc2)cn1-c1ccccc1F)Nc1ccc(F)cc1 | – | inconclusive: 12.6 µM [inhibitor, partial curve, poor fit]
COc1cccc(CN(C)CC2CCCN(CCc3ccc(Cl)cc3)C2)c1OC (configuration not stated) | – | inconclusive: 20 µM [inhibitor, partial curve, poor fit]

# Continued.

Structure (SMILES),"activity change, negative = inhibition",Potency
CS(=O)(=O)N1CCN(C(=O)CSc2ccccc2)CC1,–,"inconclusive: 35.5 µM [activator, single point]"
CC(C)CNS(=O)(=O)c1ccc(CCC(=O)Nc2cc(Cl)ccc2Oc2ccccc2)cc1,–,"inconclusive: 3.98 µM [inhibitor, full curve, poor fit]"
COc1ccc(S(=O)(=O)c2c(Nc3cccc(C)c3C)sc(C(=O)c3ccccc3)c2N)cc1,–,"inconclusive: 4.47 µM [inhibitor, full curve, poor fit]"
CCOc1cc2c(cc1OCC)-n1cccc1C(c1cccc(OCC)c1O)NC2 (configuration not stated),–,"inconclusive: 3.55 µM [inhibitor, partial curve, poor fit]"
Cc1ccc(Nc2nc(-c3ccncc3)cs2)cc1,inactive: -11.1%,–
COc1ccc(NC(=O)c2ccc3c(=O)n4c(nc3c2)CCCCC4)cc1,–,"inconclusive: 3.55 µM [inhibitor, partial curve, poor fit]"
Cc1nc(N=Nc2cc(S(=O)(=O)O)c3cc([N+](=O)[O-])cc(S(=O)(=O)O)c3c2)c(COP(=O)(O)O)c(C=O)c1O,–,"inconclusive: 1.77 µM [activator, full curve, poor fit]"
COc1ccc(-c2nc(SCC(=O)NC(C)CCc3ccccc3)n[nH]2)cc1 (configuration not stated),–,"inconclusive: 2.51 µM [inhibitor, partial curve, poor fit]"
O=C(Nc1cc(Cl)ccc1N1CCOCC1)c1ccc(=O)[nH]c1,inactive: 7.14%,–
O=c1c2cc3c(cc2nc2sc(Nc4ccccc4)nn12)OCO3,inactive: 16.1% [at 46.1 µM],–
NC(=S)N/N=C/c1coc2c(ccc3ccccc32)c1=O,inactive: 1.02%,–
FC(F)(F)c1cnc(C(c2ccccn2)c2ncn[nH]2)c(Cl)c1 (configuration not stated),–,"inconclusive: 35.5 µM [inhibitor, single point]"
O=C(C#Cc1ccccc1)Nc1cccc(F)c1,–,active: 11.2 µM
CCCn1c(-c2ccccc2)cc(SC)c(C#N)c1=O,–,"inconclusive: 8.91 µM [inhibitor, partial curve, poor fit]"
Cn1cnc2cc(NS(=O)(=O)c3ccc(Br)cc3)ccc21,inactive: 4.4%,–
COc1ccc(S(=O)(=O)N=C2C=C(C)C(=O)C(C)=C2)cc1,–,"inconclusive: 0.0082 µM [inhibitor, full curve, poor fit]"
CC1CCN(S(=O)(=O)c2ccc3c(c2)c(=O)c(C(=O)N2CCN(c4cccc(Cl)c4)CC2)cn3C)CC1,inactive: 23.4% [at 46.1 µM],–
Cc1ccc(-c2nn(-c3cc(N4CCNCC4)ccc3[N+](=O)[O-])c(=O)c3ccccc23)cc1,–,"inconclusive: 28.2 µM [inhibitor, single point]"
CC(C(=O)Nc1cccc([N+](=O)[O-])c1)N1CCN(C/C=C/c2ccccc2)CC1 (configuration not stated),inactive: -3.19%,–
Cc1ccc(Cl)cc1N1CCN(Cc2nc3c(c(=O)[nH]c(=O)n3C)n2CCc2ccccc2)CC1,–,"inconclusive: 17.8 µM [inhibitor, partial curve, poor fit]"
CCn1cc(/C=N\NC(=O)c2c[nH]c3ccccc23)c(C)n1,–,"inconclusive: 29.1 µM [inhibitor, single point]"

# — PubChem BioAssay AID540256 (National Center for Advancing Translational Sciences (NCATS), 2011)
